Earlier results, collected in US20110097405A1, “ESTRADIOL-CONTAINING DRUG DELIVERY SYSTEM” (Bayer Schering Pharma Aktiengesellschaft, priority 2008, published 2011).
At least one compound was matched to its structure with a doubt left.

Conditions: intranasal; some postmenopausal women; cited from earlier work

C[C@]12CC[C@@H]3c4ccc(O)cc4CC[C@H]3[C@@H]1CC[C@@H]2O [estradiol]
effects on lipid parameters and markers of bone resorption, bone formation and bone mineral density: beneficial effects
